The record followed here is paper PMC3475717, “A Spiroligomer α-Helix Mimic That Binds HDM2, Penetrates Human Cells and Stabilizes HDM2 in Cell Culture” (PLoS ONE, 2012).

In this experiment the test system is HDM2 and wt-p53 in HepG2 cells. The experiment can be described thus: time dependent Western analysis of HDM2 and wt-p53. It is filed as cell-based, human. The settings on record: HepG2, 15 µM, at 4–8 hours, average. The protocol: Time dependent Western analysis of the effect of spiroligomer 1 on the levels of HDM2 and wt-p53 in HepG2 cells were also carried out. In HepG2 cells the HDM2 levels increased on average 2-fold at 4–8 hours after introduction of compound 1 and then decreased after that (Figure 11B&C). The wt-p53 increased on average about 2–3 fold at 6–12 hours and then decreased after that (Figure 11B&D). This is in contrast to the well-known effect of Nutlin-3 observed in many cell lines in which the level of wt-p53 increases in a dose-dependent manner with a concomitant increase in the levels of HDM2 (Figure 11B), [34]. In HepG2 cells, the HDM2 stabilization of compound 1 seen in Huh7 cells is possibly muted by the negative feedback loop of p53 and HDM2. The weak, transient stabilization of p53 in HepG2 cells by compound 1 may be due to its dissociation constant with HDM2 (400 nM) being on par with the affinity of p53 for HDM2.
Table S.7. Parameters used for the non-linear fit for the plot of the competition binding experiment.
Cell Culture and Treatment. […]
Fluorescence and Confocal Microscopy. Fluorescence and confocal microscopy were applied to live and fixed cells. […] Fluorescent specimens were analyzed using an ECLIPSE Ti microscope (Nikon), lenses with hardened […]
Western Blotting. […] Images were quantified using ImageJ software (NIH). […]

Molecules are shown by their SMILES. Entries after “also recorded” stand apart in the source; their conditions may differ. The source holds more than one record for some entries. The list is limited to them. The source may hold further records. Values given together differ, and nothing given here explains why; some may be repeats, others may stem from another dose, organism or construct than stated.

For the compound `CC(C)CN1C(=O)[C@@H]2C[C@@]3(CN2C(=O)[C@@]12C[C@H]1C(=O)N(Cc4ccc(Cl)c(Cl)c4)[C@]4(C[C@@H]5C(=O)N[C@@H](CCc6ccccc6)C(=O)N5C4)C(=O)N1C2)NC(=O)[C@@H](CCCCNC(=S)Nc1ccc2c(c1)C(=O)OC21c2ccc(O)cc2Oc2cc(O)ccc21)NC3=O` [Compound 1], the “HDM2 levels relative to control” value is “transient increase in HDM2 levels at 4 hours followed by a decrease; also recorded: 2 fold”.
